{
  "source": "the supplement of paper PMC8728848",
  "binders": {"B1": {"name": "RobpsCRA (Robinia pseudoacacia) (protein)", "chain": "IKGGYWYSGSGLAVSDINPSHFTHLFCAFADLDPNTNKLTISSSNAAAFSTFTQTVRAKNPSVKTLLSIGGGGGRALAAVFANMASQASRRKSFIDSSIQLARRNNFHGLDLDWEYPSSDIDKTNFASLIREWRAAVATESSTSGTPALLLSAAVGGSDQITPLKYYPGEAIANNLDWVNVMTYDLYTSDSYPTLTQPPAPLFYPRGIFSADEGITKWIQSGVPESKLALGLPFYGFKWRLSDPNNHGLFAPATQGLGAVKYKDIVNTGGQVEFDSTYVTNYCFKGTDWYGYDDTQSISAKVAYAKQRGLFGYFAWHIEQDSNWALS"}},
  "test_in_all_cases": "glycan array binding signal (z-score within array); higher = stronger binding",
  "settings_in_all_cases": "glycan notation: IUPAC condensed, linker removed",
  "key": {"[1]": {"biological_target": "Gal(b1-4)GlcNAc(b1-3)Gal(b1-4)GlcNAc(b1-6)[Gal(b1-3)]GalNAc", "how_it_was_run": "(§1)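 Negative Z-scores can be read as non-binding. The Z-score is calculated within each array and then averaged across arrays of one protein sequence at different concentrations or buffers and across linkers. Arrays, 3228 in all, were curated from the Consortium for Functional Glycomics database and kept only where the protein sequence was available.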"}, "[2]": {"biological_target": "Gal(b1-4)GlcNAc(b1-3)Gal(b1-4)[Fuc(a1-3)]GlcNAc(b1-3)Gal(b1-4)[Fuc(a1-3)]GlcNAc", "how_it_was_run": "as §1"}, "[3]": {"biological_target": "Gal(b1-4)GlcNAc(b1-3)GalNAc", "how_it_was_run": "as §1"}, "[4]": {"biological_target": "Gal(b1-4)GlcNAc(b1-3)[Fuc(a1-3)GlcNAc(b1-6)]Gal(b1-4)Glc", "how_it_was_run": "as §1"}, "[5]": {"biological_target": "Gal(b1-4)GlcNAc(b1-3)[Gal(b1-4)GlcNAc(b1-6)]Gal(b1-4)GlcNAc", "how_it_was_run": "as §1"}, "[6]": {"biological_target": "Gal(b1-4)GlcNAc(b1-3)[GlcNAc(b1-6)]Gal(b1-4)GlcNAc", "how_it_was_run": "as §1"}, "[7]": {"biological_target": "Gal(b1-4)GlcNAc(b1-6)Gal(b1-4)GlcNAc", "how_it_was_run": "as §1"}, "[8]": {"biological_target": "Gal(b1-4)GlcNAc(b1-6)GalNAc", "how_it_was_run": "as §1"}, "[9]": {"biological_target": "Gal(b1-4)GlcNAc(b1-6)[Gal(b1-3)]GalNAc", "how_it_was_run": "as §1"}, "[10]": {"biological_target": "Gal(b1-4)GlcNAc(b1-6)[Gal(b1-4)GlcNAc(b1-3)]GalNAc", "how_it_was_run": "as §1"}, "Gal(b1-4)GlcNAc6P": {"biological_target": "Gal(b1-4)GlcNAc6P", "how_it_was_run": "as §1"}, "Gal(b1-6)Gal": {"biological_target": "Gal(b1-6)Gal", "how_it_was_run": "as §1"}, "Gal3S(b1-3)GalNAc": {"biological_target": "Gal3S(b1-3)GalNAc", "how_it_was_run": "as §1"}, "Gal3S(b1-3)GlcNAc": {"biological_target": "Gal3S(b1-3)GlcNAc", "how_it_was_run": "as §1"}, "[11]": {"biological_target": "Gal3S(b1-3)[Fuc(a1-4)]GlcNAc", "how_it_was_run": "as §1"}, "Gal3S(b1-4)Glc": {"biological_target": "Gal3S(b1-4)Glc", "how_it_was_run": "as §1"}, "Gal3S(b1-4)Glc6S": {"biological_target": "Gal3S(b1-4)Glc6S", "how_it_was_run": "as §1"}, "Gal3S(b1-4)GlcNAc": {"biological_target": "Gal3S(b1-4)GlcNAc", "how_it_was_run": "as §1"}, "[12]": {"biological_target": "Gal3S(b1-4)[Fuc(a1-3)]Glc6S", "how_it_was_run": "as §1"}, "[13]": {"biological_target": "Gal3S(b1-4)[Fuc(a1-3)]GlcNAc", "how_it_was_run": "as §1"}, "[14]": {"biological_target": "Gal3S(b1-4)[Fuc(a1-3)]GlcNAc6S", "how_it_was_run": "as §1"}, "Gal3S4S(b1-4)GlcNAc": {"biological_target": "Gal3S4S(b1-4)GlcNAc", "how_it_was_run": "as §1"}, "Gal3S6S(b1-4)GlcNAc": {"biological_target": "Gal3S6S(b1-4)GlcNAc", "how_it_was_run": "as §1"}, "Gal3S6S(b1-4)GlcNAc6S": {"biological_target": "Gal3S6S(b1-4)GlcNAc6S", "how_it_was_run": "as §1"}, "Gal4S(b1-4)GlcNAc": {"biological_target": "Gal4S(b1-4)GlcNAc", "how_it_was_run": "as §1"}, "Gal4S6S(b1-4)GlcNAc": {"biological_target": "Gal4S6S(b1-4)GlcNAc", "how_it_was_run": "as §1"}, "Gal6P(b1-4)GlcNAc": {"biological_target": "Gal6P(b1-4)GlcNAc", "how_it_was_run": "as §1"}, "Gal6S(b1-3)GlcNAc": {"biological_target": "Gal6S(b1-3)GlcNAc", "how_it_was_run": "as §1"}, "Gal6S(b1-3)GlcNAc6S": {"biological_target": "Gal6S(b1-3)GlcNAc6S", "how_it_was_run": "as §1"}, "Gal6S(b1-4)Glc": {"biological_target": "Gal6S(b1-4)Glc", "how_it_was_run": "as §1"}, "Gal6S(b1-4)Glc6S": {"biological_target": "Gal6S(b1-4)Glc6S", "how_it_was_run": "as §1"}, "Gal6S(b1-4)GlcNAc": {"biological_target": "Gal6S(b1-4)GlcNAc", "how_it_was_run": "as §1"}, "Gal6S(b1-4)GlcNAc6S": {"biological_target": "Gal6S(b1-4)GlcNAc6S", "how_it_was_run": "as §1"}, "GalNAc(a1-3)Gal": {"biological_target": "GalNAc(a1-3)Gal", "how_it_was_run": "as §1"}, "GalNAc(a1-3)GalNAc": {"biological_target": "GalNAc(a1-3)GalNAc", "how_it_was_run": "as §1"}, "[15]": {"biological_target": "GalNAc(a1-3)GalNAc(b1-3)Gal(a1-4)Gal(b1-4)Glc", "how_it_was_run": "as §1"}, "[16]": {"biological_target": "GalNAc(a1-3)GalNAc(b1-3)Gal(a1-4)Gal(b1-4)GlcNAc", "how_it_was_run": "as §1"}, "GalNAc(b1-3)Gal": {"biological_target": "GalNAc(b1-3)Gal", "how_it_was_run": "as §1"}, "[17]": {"biological_target": "GalNAc(b1-3)Gal(a1-4)Gal(b1-4)GlcNAc", "how_it_was_run": "as §1"}, "[18]": {"biological_target": "GalNAc(b1-3)Gal(a1-4)Gal(b1-4)GlcNAc(b1-3)Gal(b1-4)Glc", "how_it_was_run": "as §1"}, "[19]": {"biological_target": "GalNAc(b1-3)Gal(a1-6)Gal(b1-4)Glc", "how_it_was_run": "as §1"}, "GalNAc(b1-3)GalNAc": {"biological_target": "GalNAc(b1-3)GalNAc", "how_it_was_run": "as §1"}, "GalNAc(b1-3)GlcNAc": {"biological_target": "GalNAc(b1-3)GlcNAc", "how_it_was_run": "as §1"}, "GalNAc(b1-4)Gal(b1-4)Glc": {"biological_target": "GalNAc(b1-4)Gal(b1-4)Glc", "how_it_was_run": "as §1"}, "GalNAc(b1-4)GlcNAc": {"biological_target": "GalNAc(b1-4)GlcNAc", "how_it_was_run": "as §1"}},
  "note": "The list shows a part of the results.",
  "data": [
    {"binder": "B1", "values": [
      {"measurement": "glycan array binding signal (z-score)", "setting": "[1]", "result": -0.285},
      {"measurement": "glycan array binding signal (z-score)", "setting": "[2]", "result": -0.287},
      {"measurement": "glycan array binding signal (z-score)", "setting": "[3]", "result": 0.32},
      {"measurement": "glycan array binding signal (z-score)", "setting": "[4]", "result": -0.551},
      {"measurement": "glycan array binding signal (z-score)", "setting": "[5]", "result": -0.121},
      {"measurement": "glycan array binding signal (z-score)", "setting": "[6]", "result": -0.112},
      {"measurement": "glycan array binding signal (z-score)", "setting": "[7]", "result": -0.681},
      {"measurement": "glycan array binding signal (z-score)", "setting": "[8]", "result": -0.712},
      {"measurement": "glycan array binding signal (z-score)", "setting": "[9]", "result": -0.171},
      {"measurement": "glycan array binding signal (z-score)", "setting": "[10]", "result": -0.007},
      {"measurement": "glycan array binding signal (z-score)", "setting": "Gal(b1-4)GlcNAc6P", "result": -0.574},
      {"measurement": "glycan array binding signal (z-score)", "setting": "Gal(b1-6)Gal", "result": -0.367},
      {"measurement": "glycan array binding signal (z-score)", "setting": "Gal3S(b1-3)GalNAc", "result": -0.326},
      {"measurement": "glycan array binding signal (z-score)", "setting": "Gal3S(b1-3)GlcNAc", "result": 0.79},
      {"measurement": "glycan array binding signal (z-score)", "setting": "[11]", "result": 0.013},
      {"measurement": "glycan array binding signal (z-score)", "setting": "Gal3S(b1-4)Glc", "result": 0.23},
      {"measurement": "glycan array binding signal (z-score)", "setting": "Gal3S(b1-4)Glc6S", "result": 0.297},
      {"measurement": "glycan array binding signal (z-score)", "setting": "Gal3S(b1-4)GlcNAc", "result": 0.05},
      {"measurement": "glycan array binding signal (z-score)", "setting": "[12]", "result": 1.65},
      {"measurement": "glycan array binding signal (z-score)", "setting": "[13]", "result": 0.577},
      {"measurement": "glycan array binding signal (z-score)", "setting": "[14]", "result": -0.084},
      {"measurement": "glycan array binding signal (z-score)", "setting": "Gal3S4S(b1-4)GlcNAc", "result": 0.05},
      {"measurement": "glycan array binding signal (z-score)", "setting": "Gal3S6S(b1-4)GlcNAc", "result": -0.453},
      {"measurement": "glycan array binding signal (z-score)", "setting": "Gal3S6S(b1-4)GlcNAc6S", "result": 0.612},
      {"measurement": "glycan array binding signal (z-score)", "setting": "Gal4S(b1-4)GlcNAc", "result": 0.139},
      {"measurement": "glycan array binding signal (z-score)", "setting": "Gal4S6S(b1-4)GlcNAc", "result": -0.367},
      {"measurement": "glycan array binding signal (z-score)", "setting": "Gal6P(b1-4)GlcNAc", "result": -0.444},
      {"measurement": "glycan array binding signal (z-score)", "setting": "Gal6S(b1-3)GlcNAc", "result": -0.277},
      {"measurement": "glycan array binding signal (z-score)", "setting": "Gal6S(b1-3)GlcNAc6S", "result": 0.549},
      {"measurement": "glycan array binding signal (z-score)", "setting": "Gal6S(b1-4)Glc", "result": 0.021},
      {"measurement": "glycan array binding signal (z-score)", "setting": "Gal6S(b1-4)Glc6S", "result": -0.491},
      {"measurement": "glycan array binding signal (z-score)", "setting": "Gal6S(b1-4)GlcNAc", "result": -0.522},
      {"measurement": "glycan array binding signal (z-score)", "setting": "Gal6S(b1-4)GlcNAc6S", "result": 0.018},
      {"measurement": "glycan array binding signal (z-score)", "setting": "GalNAc(a1-3)Gal", "result": -0.414},
      {"measurement": "glycan array binding signal (z-score)", "setting": "GalNAc(a1-3)GalNAc", "result": -0.106},
      {"measurement": "glycan array binding signal (z-score)", "setting": "[15]", "result": -0.305},
      {"measurement": "glycan array binding signal (z-score)", "setting": "[16]", "result": -0.705},
      {"measurement": "glycan array binding signal (z-score)", "setting": "GalNAc(b1-3)Gal", "result": -0.225},
      {"measurement": "glycan array binding signal (z-score)", "setting": "[17]", "result": 0.969},
      {"measurement": "glycan array binding signal (z-score)", "setting": "[18]", "result": -0.794},
      {"measurement": "glycan array binding signal (z-score)", "setting": "[19]", "result": -0.698},
      {"measurement": "glycan array binding signal (z-score)", "setting": "GalNAc(b1-3)GalNAc", "result": -0.308},
      {"measurement": "glycan array binding signal (z-score)", "setting": "GalNAc(b1-3)GlcNAc", "result": 0.418},
      {"measurement": "glycan array binding signal (z-score)", "setting": "GalNAc(b1-4)Gal(b1-4)Glc", "result": 0.371},
      {"measurement": "glycan array binding signal (z-score)", "setting": "GalNAc(b1-4)GlcNAc", "result": 0.395}
    ]}
  ]
}
